Source: PMC10266261, “A High-Throughput Approach to Identify Specific Neurotoxicants / Developmental Toxicants in Human Neuronal Cell Function Assays” (ALTEX, 2018)
Where two headings read alike, the source gives them in different places.

Assays:
[1] = tested on: immature human dorsal root ganglia neurons; assay: cells; assay type: cell-based; conditions: Neuron
Method: The PeriTox test (= UKN5) is based on cells differentiated from the H9 human embryonic stem cell (hESC) line (WA09 line), which was obtained from WiCell (Madison, WI, USA). The import of cells and the experiments were authorized under license no. 170–79-1–4-27 (Robert Koch Institute, Berlin, Germany).
After one hour, 25 μl PDM with 4x concentrated serial dilutions of the test compounds was added to the cells. At 23 h after treatment, the cells were stained with SM and incubated for one additional hour at 37°C.
Image acquisition was performed with an ArrayScan VTI HCS (high content imaging) microscope (Cellomics, Waltham, MA, USA).
After automated imaging, an algorithm was applied that identified the neuronal somata (based on identified nuclei) and subtracted the somatic area from the total neuronal area to obtain the neurite area (NA), i.e., the number of pixels per field covered by neurites. […] Viability (V) was expressed as percentage of live cells relative to control.
Neurite area (NA) and viability (V) were always expressed as percentage of the DMSO control. In a first step, matched technical replicates were averaged. […] Curve fitting was performed employing a 4-parameter log-logistic function with least squares fit. […] The variation of DMSO controls was calculated from pooled values of DMSO controls over several experiments. […]

LUHMES cells = assay: cells; assay type: cell-based; conditions: Homo sapiens, 24 h, read-out: EC50(NA), neurite area
Method: For the NeuriTox test (= UKN4), LUHMES (Lund human mesencephalic) cells were characterized and cultured as described in detail earlier ([Krug et al., 2013]; [Lotharius et al., 2005]; [Scholz et al., 2011]). Briefly, cells were maintained in proliferation medium (PM: AdvDMEM/F12 supplemented with 2 mM glutamine, 1x N2 supplement and 40 ng/ml fibroblast growth factor-2) in PLO/fibronectin coated flasks (50 μg/ml poly-L-ornithine (PLO) and 1 μg/ml fibronectin). For differentiation, cells were seeded at a density of 46,000 cells/cm^2 in PM. […]
The procedure was applied as detailed earlier ([Hoelting et al., 2016]; [Stiegler et al., 2011]). […] Cells with normal-sized nuclei that were calcein-positive were counted as live cells, whereas H-33342 single-positive cells were counted as dead cells. Viability (V) was expressed as percentage of live cells relative to control.
Neurite area (NA) and viability (V) were always expressed as percentage of the DMSO control. […] The variation of DMSO controls was calculated from pooled values of DMSO controls over several experiments.
For calculation of the benchmark concentration values (BMC), a benchmark response (BMR) of three standard deviations of DMSO solvent controls of all assay plates (= “3 x noise level”) was used. […] To identify specific effects on neurite outgrowth, the EC50 ratio of EC50(viability)/EC50(neurite area) was calculated. […]

COc1cc2c(c(OC)c1OC)-c1ccc(OC)c(=O)cc1[C@@H](NC(C)=O)CC2 [Colchicine]
EC50 ([1]; 24 h, read-out: EC50(NA), neurite area): 20 nM
EC50 ([1]; read-out: EC50(V), viability, surrogate marked ♦): 300 nM
EC50 (LUHMES cells): 30 nM
